# Assay results reported in publication PMC7819943, “Rice protein-binding microarrays: a tool to detect cis-acting elements near promoter regions in rice”.
# By UniProt entry, the sequences of proteins in these tests, tags left out.
# UniProt Q0JBA9, entry or part of it: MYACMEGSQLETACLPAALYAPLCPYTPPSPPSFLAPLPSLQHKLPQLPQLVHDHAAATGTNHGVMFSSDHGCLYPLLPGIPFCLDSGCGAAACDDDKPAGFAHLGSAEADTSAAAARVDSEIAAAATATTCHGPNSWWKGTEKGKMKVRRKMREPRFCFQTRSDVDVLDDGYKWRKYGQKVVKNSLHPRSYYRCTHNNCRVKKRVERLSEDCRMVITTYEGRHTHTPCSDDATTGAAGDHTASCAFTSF
# The list shows a part of the results.
# Biological target: OsWRKY34 (Oryza sativa, UniProt Q0JBA9 1-250)
# Assay: protein-binding microarray (RPBM); PBS, 2% BSA, 51.3 ng/ul salmon testes DNA, 50 uM zinc acetate, 200 nM TF, 25 C, 1 h; high values mean tight binding
# Settings: protein: recombinant; tags: N-terminal polyhistidine and DsRed monomer fusion (pET32a); label: CyDye5-dUTP incorporated in the synthesized complementary strand; 3' TTTTT single-stranded linker to array surface; dsDNA, one strand shown
# Outline: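 A custom Agilent array was converted to double-stranded form by primer extension with Cy5-dUTP and blocked with 2% BSA. Protein at 200 nM in PBS with 2% BSA, salmon testes DNA and 50 µM zinc acetate was applied for 1 h at 25 °C, followed by washing. The proteins were polyhistidine–DsRed N-terminal fusions of transcription factors, expressed in E. coli BL21-CodonPlus and Ni–NTA-purified. The binding signal is per-feature fluorescence intensity (arbitrary units) from an Axon 4000B scanner.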
row,Sequence,binding signal
1,GGCCGCCACCCCACCAGACGCATCGATCCCCGTGTCCAGACGGAGTCACCTAGTGCAG,8490 fluorescence intensity (a.u.)
2,ATATATATATATATATATGTGTGTATATATATATATATATCGGAGTCACCTAGTGCAG,8920 fluorescence intensity (a.u.)
3,TACTTCTTCCATCTCAATTCCTCTTCTATTTTTCTGAGATCGGAGTCACCTAGTGCAG,9490 fluorescence intensity (a.u.)
4,CCATTTGTTTCACTTTACACCACACCTCATCTTCTCCAAGCGGAGTCACCTAGTGCAG,9850 fluorescence intensity (a.u.)
5,TCTTCTTTTTCCTTCTCATCGGTCCTTATATATACATCAGCGGAGTCACCTAGTGCAG,8780 fluorescence intensity (a.u.)
6,CTACCGCCACCATCCACTGCCATTTGCCGGTCGCTGCCATCGGAGTCACCTAGTGCAG,9040 fluorescence intensity (a.u.)
7,GGCCACCTGCTACACTGCTAACTTCAAACGGCCGCCGAATCGGAGTCACCTAGTGCAG,8170 fluorescence intensity (a.u.)
8,CATAACCCTAGCCGCCGCCGCCCGTTCTCCCTCGTCCTCCCGGAGTCACCTAGTGCAG,9860 fluorescence intensity (a.u.)
9,AATGCACAGCTAGTACTACTCGCGAGTCACCATCCATCTCCGGAGTCACCTAGTGCAG,8340 fluorescence intensity (a.u.)
10,TCTCTCTCTATACTCCACTCATGTGCTGTACTACACTGACCGGAGTCACCTAGTGCAG,11300 fluorescence intensity (a.u.)
11,CTAGATTCGTTTTTTATGGGGTGGAGGGAGTACATGCCTTCGGAGTCACCTAGTGCAG,12800 fluorescence intensity (a.u.)
12,AACGCACTACCGTGCACTATATAGTCACATCCATTAAAACCGGAGTCACCTAGTGCAG,8530 fluorescence intensity (a.u.)
13,TTTTTTTCTCGTCTTCAAAATATACAGTGCTGTTTTTTATCGGAGTCACCTAGTGCAG,8880 fluorescence intensity (a.u.)
14,AATTGTTTATTTTTCTTTTTTTTTCTTTGCCTATTTTCCACGGAGTCACCTAGTGCAG,10200 fluorescence intensity (a.u.)
15,ATCCTCACTCGCCGCCTTCTCTCCTCTCGCGCCGTTTCGCCGGAGTCACCTAGTGCAG,9420 fluorescence intensity (a.u.)
16,AAACTATGTGATTAATTACCGAATTTCATTGTGCCGCATTCGGAGTCACCTAGTGCAG,8860 fluorescence intensity (a.u.)
17,CCTCCGTTTTTAAATATTTGATGCCGTTGACTTTTTAAAACGGAGTCACCTAGTGCAG,19900 fluorescence intensity (a.u.)
18,CGTCCTCAACCGTGACGCCGCCGCGCGCCTCACCATCTCGCGGAGTCACCTAGTGCAG,9670 fluorescence intensity (a.u.)
19,GTGCTAGCTTATCTAACATTCATGCTTTGCTTCTCCCTTACGGAGTCACCTAGTGCAG,8590 fluorescence intensity (a.u.)
20,TTGGAGTCGGCGCCCCGCGCGTTGCCTCATCCGGTCAACGCGGAGTCACCTAGTGCAG,9440 fluorescence intensity (a.u.)
21,GAGGAGGAGTCTTGACTCTTGCGAGCGTGTTCGTTCTTGGCGGAGTCACCTAGTGCAG,9300 fluorescence intensity (a.u.)
22,TCCTCAAATTGCTCTATTTTTTCCTGCGGCCCAATCAAACCGGAGTCACCTAGTGCAG,10100 fluorescence intensity (a.u.)
23,GACTCCGCCGCCGCCGCCGCCGCCGCCGCCTCCGGCTCCGCGGAGTCACCTAGTGCAG,8630 fluorescence intensity (a.u.)
24,CTTCCCTTCGCCATGTCCGTCTCCGCCGCCGTCGCCGCCGCGGAGTCACCTAGTGCAG,8480 fluorescence intensity (a.u.)
25,GTGGTTTTTTTTCCTGATAGTCACAATTTTAGTTACTTTTCGGAGTCACCTAGTGCAG,10700 fluorescence intensity (a.u.)
26,TAATTTTAGAGTTGGTTTTGGAGTTTTTTTTCATCGTAGTCGGAGTCACCTAGTGCAG,10700 fluorescence intensity (a.u.)
27,TATCCCTGTTGCTATTCTCGCTACTTAAACGCCACGTTACCGGAGTCACCTAGTGCAG,9860 fluorescence intensity (a.u.)

# For reference, part of the list above:
row,Sequence,binding signal
25,GTGGTTTTTTTTCCTGATAGTCACAATTTTAGTTACTTTTCGGAGTCACCTAGTGCAG,10700 fluorescence intensity (a.u.)
26,TAATTTTAGAGTTGGTTTTGGAGTTTTTTTTCATCGTAGTCGGAGTCACCTAGTGCAG,10700 fluorescence intensity (a.u.)
27,TATCCCTGTTGCTATTCTCGCTACTTAAACGCCACGTTACCGGAGTCACCTAGTGCAG,9860 fluorescence intensity (a.u.)

# Further entries.

row,Sequence,binding signal
1,ATCCTTGCGTACTGTTCATCTTCTTCCTCCGTCAGTTCATCGGAGTCACCTAGTGCAG,8120 fluorescence intensity (a.u.)
2,GTCCTGGTGGTGCGTTTTAAACCAAACCCGAAATCGCTGACGGAGTCACCTAGTGCAG,8230 fluorescence intensity (a.u.)
3,GTATATATTTAACTGGGGCTAATACTTCATTCTCAGCTTTCGGAGTCACCTAGTGCAG,8340 fluorescence intensity (a.u.)
4,CGGTGGCCTCCTTCCCACAGCGCTGCCTGTTGCCGGCCTGCGGAGTCACCTAGTGCAG,8060 fluorescence intensity (a.u.)
5,ACGCACATCCCTCCGCCACCGATTTGTTGTCCCCGCCGCCCGGAGTCACCTAGTGCAG,9020 fluorescence intensity (a.u.)
6,ATATTTCTCAGCAAAACTGAGGCCATATCTTTCATAGTATCGGAGTCACCTAGTGCAG,8620 fluorescence intensity (a.u.)
7,GTGTTCAGTTCTCTTGCTAATTTTTTTTTAAGTATACAGACGGAGTCACCTAGTGCAG,8740 fluorescence intensity (a.u.)
8,ATTCACTTTCTTGATTACGTAGAAGCTTCAGTGTCTATTCCGGAGTCACCTAGTGCAG,10200 fluorescence intensity (a.u.)
9,ATGTTTAAGTCAGTTTTTAAGTTCGTTCTTTTTAAAACTCCGGAGTCACCTAGTGCAG,8290 fluorescence intensity (a.u.)
10,GTGGTGTTGTTCCTCGTCTACGTGCTCGCGGTGCTTGTGCCGGAGTCACCTAGTGCAG,10700 fluorescence intensity (a.u.)
11,GCTCCTTCTCGCGCTACCCAGCGAACAGCCGCCGCTTCCACGGAGTCACCTAGTGCAG,9620 fluorescence intensity (a.u.)
12,ATTGATTGCCCAACTATTACTACCTTCCTGTTTTTTTCTTCGGAGTCACCTAGTGCAG,8160 fluorescence intensity (a.u.)
13,ATGTTCTGCCCATGCTTTACTTGCTCCCTGTGCACAAACACGGAGTCACCTAGTGCAG,11400 fluorescence intensity (a.u.)
14,AGGATGGGGTTTTGTGGTACGTGATCATAGTGGATGCTGTCGGAGTCACCTAGTGCAG,8710 fluorescence intensity (a.u.)
15,CATCACTACTTCAGTCCAGCCCTGTACATGTACATATATACGGAGTCACCTAGTGCAG,8480 fluorescence intensity (a.u.)
16,ACTCGATCACCGCCTCCACCATCACCACCACCACCGCACGCGGAGTCACCTAGTGCAG,10600 fluorescence intensity (a.u.)
17,AATAGATGACATTGTTGACTTATTCTTACATGTTTGCCCACGGAGTCACCTAGTGCAG,9350 fluorescence intensity (a.u.)
18,ATGACACTTTCTTAGAGTTACTATTGTTTATTTTTCGCGTCGGAGTCACCTAGTGCAG,10700 fluorescence intensity (a.u.)
19,TCCCATTACTACATCGTCATTGTGTTCAACTATTGCACTACGGAGTCACCTAGTGCAG,9380 fluorescence intensity (a.u.)
20,AGTTCCAGCTCTCTCTCTCTCGTCTTATTGTTGGTCGTTGCGGAGTCACCTAGTGCAG,8710 fluorescence intensity (a.u.)
21,GGGGAGTTGGGATTTTTGGCGATGTGGGTTTCGTACACCGCGGAGTCACCTAGTGCAG,9870 fluorescence intensity (a.u.)
22,CTTTTTTTTTTTCCCTCCTGCTCTCATCTCAGCCTCTCACCGGAGTCACCTAGTGCAG,8800 fluorescence intensity (a.u.)
23,CGCTGTTGCACCGCCTCCAGCTCGTCCACTACCTCACCACCGGAGTCACCTAGTGCAG,8050 fluorescence intensity (a.u.)
24,AAGAAGATCCACTCGTCCCTCGAGCCAACCTGACGACAACCGGAGTCACCTAGTGCAG,8120 fluorescence intensity (a.u.)
25,GAGAGAGTGTAGGTTGCCGATGACGTTCCAAATATTGATCCGGAGTCACCTAGTGCAG,8260 fluorescence intensity (a.u.)
26,CTTTTAGACGCCACTATTGTACTTGTATTTTTTTTTGGGTCGGAGTCACCTAGTGCAG,9940 fluorescence intensity (a.u.)
27,GCGGAGGCGCGCCGCCTACAAGCCGAGCGTTGACTCACATCGGAGTCACCTAGTGCAG,10500 fluorescence intensity (a.u.)
